From PMC6300356, “DNA translocation mechanism of an XPD family helicase”

What was measured:
Assay in all cases: MST
[1] = molecular target: T1, DinG I618A (Escherichia coli) (UniProt P27296); details: MST: 25 mM Tris pH 8.0, 200 mM NaCl, 1 mM DTT, 5% glycerol, 25 C, 10 nM ssDNA; recombinant protein; residues 1-716; protein details: His6-MBP-TEV N-terminal, removed by TEV; label: 5' FAM; single-stranded DNA
T1 sequence (looked up): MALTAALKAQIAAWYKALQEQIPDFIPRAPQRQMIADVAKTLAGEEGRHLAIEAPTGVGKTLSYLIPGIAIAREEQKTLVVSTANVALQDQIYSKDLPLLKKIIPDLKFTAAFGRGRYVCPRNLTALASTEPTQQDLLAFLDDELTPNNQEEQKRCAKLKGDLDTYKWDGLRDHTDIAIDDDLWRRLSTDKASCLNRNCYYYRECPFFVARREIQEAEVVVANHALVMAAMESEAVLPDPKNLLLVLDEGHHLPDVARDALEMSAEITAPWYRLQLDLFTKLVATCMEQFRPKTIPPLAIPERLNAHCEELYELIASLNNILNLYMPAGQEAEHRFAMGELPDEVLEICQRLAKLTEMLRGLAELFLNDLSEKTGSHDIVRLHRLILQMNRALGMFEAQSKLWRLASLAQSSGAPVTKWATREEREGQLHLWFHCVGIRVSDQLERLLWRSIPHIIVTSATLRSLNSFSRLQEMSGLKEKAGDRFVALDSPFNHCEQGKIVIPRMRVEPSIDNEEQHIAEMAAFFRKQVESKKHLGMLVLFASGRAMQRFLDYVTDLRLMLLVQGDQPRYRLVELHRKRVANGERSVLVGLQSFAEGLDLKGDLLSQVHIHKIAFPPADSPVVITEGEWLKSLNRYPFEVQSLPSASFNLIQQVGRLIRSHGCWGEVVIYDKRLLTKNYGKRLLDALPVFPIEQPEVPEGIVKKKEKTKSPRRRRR

DinG (Escherichia coli) = molecular target: T2, DinG (Escherichia coli) (UniProt P27296); details: MST: 25 mM Tris pH 8.0, 200 mM NaCl, 1 mM DTT, 5% glycerol, 25 C, 10 nM ssDNA; recombinant protein; residues 1-716; protein details: His6-MBP-TEV N-terminal, removed by TEV; label: 5' FAM; single-stranded DNA
T2 sequence (looked up): T1 sequence (looked up) with A618I

[2] = molecular target: T3, DinG R117A (Escherichia coli) (UniProt P27296); details: minor defect; MST: 25 mM Tris pH 8.0, 200 mM NaCl, 1 mM DTT, 5% glycerol, 25 C, 10 nM ssDNA; recombinant protein; residues 1-716; protein details: His6-MBP-TEV N-terminal, removed by TEV; label: 5' FAM; single-stranded DNA
T3 sequence (looked up): T1 sequence (looked up) with R117A, A618I

[3] = molecular target: T4, DinG R673A (Escherichia coli) (UniProt P27296); details: MST: 25 mM Tris pH 8.0, 200 mM NaCl, 1 mM DTT, 5% glycerol, 25 C, 10 nM ssDNA; recombinant protein; residues 1-716; protein details: His6-MBP-TEV N-terminal, removed by TEV; label: 5' FAM; single-stranded DNA
T4 sequence (looked up): T1 sequence (looked up) with A618I, R673A

[4] = molecular target: T5, DinG F615A (Escherichia coli) (UniProt P27296); details: MST: 25 mM Tris pH 8.0, 200 mM NaCl, 1 mM DTT, 5% glycerol, 25 C, 10 nM ssDNA; recombinant protein; residues 1-716; protein details: His6-MBP-TEV N-terminal, removed by TEV; label: 5' FAM; single-stranded DNA
T5 sequence (looked up): T1 sequence (looked up) with F615A, A618I

[5] = molecular target: T6, DinG R211A (Escherichia coli) (UniProt P27296); details: minor defect; MST: 25 mM Tris pH 8.0, 200 mM NaCl, 1 mM DTT, 5% glycerol, 25 C, 10 nM ssDNA; recombinant protein; residues 1-716; protein details: His6-MBP-TEV N-terminal, removed by TEV; label: 5' FAM; single-stranded DNA
T6 sequence (looked up): T1 sequence (looked up) with R211A, A618I

[6] = molecular target: T7, DinG Y636A (Escherichia coli) (UniProt P27296); details: MST: 25 mM Tris pH 8.0, 200 mM NaCl, 1 mM DTT, 5% glycerol, 25 C, 10 nM ssDNA; recombinant protein; residues 1-716; protein details: His6-MBP-TEV N-terminal, removed by TEV; label: 5' FAM; single-stranded DNA
T7 sequence (looked up): T1 sequence (looked up) with A618I, Y636A

[7] = molecular target: T8, DinG F638A (Escherichia coli) (UniProt P27296); details: MST: 25 mM Tris pH 8.0, 200 mM NaCl, 1 mM DTT, 5% glycerol, 25 C, 10 nM ssDNA; recombinant protein; residues 1-716; protein details: His6-MBP-TEV N-terminal, removed by TEV; label: 5' FAM; single-stranded DNA
T8 sequence (looked up): T1 sequence (looked up) with A618I, F638A

Measured: binding result

TTTTTTTTTTTTTT [dT14 (14 base oligo-dT)]
binds: DinG (Escherichia coli)
binds more weakly: all other assays above

Changes are numbered by the printed parent chain. For some assays here: The comparison behind a weaker result is the experiment's own reference, which may not be listed here. Protein sequences can lack the tags named with them. For some assays here: The exact form of at least one protein or probe is not confirmed. For some assays here: At least one verdict rests on a figure or table, not on a statement of the authors.
